Source: publication PMC3809587, “Structure and function of the Smoothened extracellular domain in vertebrate Hedgehog signaling” (eLife, 2013)
These are yes or no findings as the source states them, for the method shown. Each block holds one binder with its values, some of them ahead of it.

How the values were obtained:
[1] = biological target: zebrafish Smoothened ectodomain (glycosylated, expressed in mammalian cells) (zebrafish) (UniProt Q5RH73); test: SEC-MALS; analytical Superdex S200 10/30, 150 mM NaCl, 10 mM HEPES pH 7.5, flow rate 0.5 ml/min; low concentration (5 µM); protein concentration at the elution peak 8.123×10^-5 g/ml; both purified
[2] = biological target: zebrafish Smoothened ectodomain (bacterial expression, used for crystallization) (zebrafish) (UniProt Q5RH73); test: crystal structure; zSmo ectodomain at 7 mg/ml, sitting drop, 100 mM HEPES pH 7.0, PEG 6000 20%, 10 mM ZnCl2, 20.5°C; two molecules in the asymmetric unit; both purified

binding [1]: no binding (tested: 5 µM)
B1: zebrafish Smoothened ectodomain (glycosylated, expressed in mammalian cells) (domain or fragment, UniProt Q5RH73 29-195)
chain: VILHPNETIFNDFCKKSTTCEVLKYNTCLGSPLPYTHTSLILAEDSETQEEAFEKLAMWSGLRNAPRCWAVIQPLLCAVYMPKCENGKVELPSQHLCQATRNPCSIVERERGWPNFLKCENKEQFPKGCQNEVQKLKFNTSGQCEAPLVKTDIQASWYKDVEGCGIQ
modifications: glycosylated (two predicted N-linked glycosylation sites)

binding [2]: no binding
B2: zebrafish Smoothened ectodomain (bacterial expression, used for crystallization) (domain or fragment, UniProt Q5RH73 29-212)
chain: VILHPNETIFNDFCKKSTTCEVLKYNTCLGSPLPYTHTSLILAEDSETQEEAFEKLAMWSGLRNAPRCWAVIQPLLCAVYMPKCENGKVELPSQHLCQATRNPCSIVERERGWPNFLKCENKEQFPKGCQNEVQKLKFNTSGQCEAPLVKTDIQASWYKDVEGCGIQCDNPLFTEDEHSDMHSY
